Here are results for 1 substance from publication PMC8449268, “Activity of the yeast vacuolar TRP channel TRPY1 is inhibited by Ca^2+–calmodulin binding” (The Journal of Biological Chemistry, 2021).

Sequences of proteins named here, by UniProt entry; tags and fusion partners are left off.
UniProt P06787: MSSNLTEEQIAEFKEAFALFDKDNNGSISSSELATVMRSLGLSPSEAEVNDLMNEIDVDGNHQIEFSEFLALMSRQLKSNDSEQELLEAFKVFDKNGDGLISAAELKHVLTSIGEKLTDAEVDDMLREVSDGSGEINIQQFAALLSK

Experiment [1] deals with T1, MBP-TRPY1-C (cytosolic C terminus of TRPY1 fused to maltose-binding protein) (S. cerevisiae) (UniProt Q12324).
T1 sequence: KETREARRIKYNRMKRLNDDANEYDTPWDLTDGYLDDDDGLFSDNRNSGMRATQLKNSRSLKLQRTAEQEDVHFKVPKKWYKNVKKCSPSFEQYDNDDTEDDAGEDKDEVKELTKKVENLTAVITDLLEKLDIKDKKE
The experiment can be described thus: pull-down; MBP-fused TRPY1 fragments (12 ug) immobilised on amylose resin, incubated with 12 ug GST fusion proteins in the absence of Ca2+ (5 mM EGTA), 60 min, 4 °C; anti-GST blot; both purified.

Experiment [2] addresses T2, TRPY1 N-terminal peptides of the peptide scan covering residues 68 to 92 (S. cerevisiae) (UniProt Q12324).
T2 sequence (peptide): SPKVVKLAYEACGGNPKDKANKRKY
The experiment in a line: peptide or protein array; 20-mer TRPY1 peptides shifted by five residues on cellulose membrane (16 nmoles per spot); ^14C-GST-Cmd1 (60 cpm per spot) in 50 mM Tris pH 7.5, 150 mM NaCl, 0.1% Triton X-100, 2 mM CaCl2, 4 °C, 16 h; autoradiography; both purified.

In experiment [3] the target is T3, TRPY1 N-terminal peptides of the peptide scan covering residues 28 to 52 (S. cerevisiae) (UniProt Q12324).
T3 sequence (peptide): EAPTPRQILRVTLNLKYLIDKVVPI
Described as above.

Experiment [4] has as its target T4, TRPY1 C-terminal peptides of the peptide scan covering residues 607–631 (S. cerevisiae) (UniProt Q12324).
T4 sequence (peptide): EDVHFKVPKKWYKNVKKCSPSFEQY
The experiment is described as above.

Results are given in words; binding and its absence hold for the method and conditions named. Some binding calls cover weakened binding; strength is not graded here. For some of these results: Tags and fused reporters may be left off the sequences shown.

As for “GST-Cmd1 (yeast calmodulin fused to glutathione-S-transferase) (from UniProt P06787 1-147)”, the binding entry was “no binding (condition: without Ca2+ (5 mM EGTA))” in experiment [1], “binds” in experiment [2], “binds” in experiment [3] and “binds” in experiment [4].
